Experimental data published in the supplement of paper PMC7666118.
This is one part of the list.

Chains of the proteins cited; added tags and fusions are not shown. Lines headed by an entry give the natural chain unless they say otherwise; changes in a name come on top.
UniProt P47756, whole entry: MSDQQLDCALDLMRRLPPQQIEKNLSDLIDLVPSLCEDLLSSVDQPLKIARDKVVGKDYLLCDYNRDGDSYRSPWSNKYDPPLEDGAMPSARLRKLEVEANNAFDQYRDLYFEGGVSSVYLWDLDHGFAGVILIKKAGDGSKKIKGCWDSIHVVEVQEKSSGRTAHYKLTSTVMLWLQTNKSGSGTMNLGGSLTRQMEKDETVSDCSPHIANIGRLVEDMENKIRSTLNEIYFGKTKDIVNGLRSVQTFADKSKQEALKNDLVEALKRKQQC
UniProt Q8N6N3: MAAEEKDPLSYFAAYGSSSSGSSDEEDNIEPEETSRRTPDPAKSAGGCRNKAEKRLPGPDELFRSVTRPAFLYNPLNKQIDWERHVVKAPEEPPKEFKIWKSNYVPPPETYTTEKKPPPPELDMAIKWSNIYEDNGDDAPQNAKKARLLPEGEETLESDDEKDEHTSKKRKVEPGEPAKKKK
UniProt Q9NSG2: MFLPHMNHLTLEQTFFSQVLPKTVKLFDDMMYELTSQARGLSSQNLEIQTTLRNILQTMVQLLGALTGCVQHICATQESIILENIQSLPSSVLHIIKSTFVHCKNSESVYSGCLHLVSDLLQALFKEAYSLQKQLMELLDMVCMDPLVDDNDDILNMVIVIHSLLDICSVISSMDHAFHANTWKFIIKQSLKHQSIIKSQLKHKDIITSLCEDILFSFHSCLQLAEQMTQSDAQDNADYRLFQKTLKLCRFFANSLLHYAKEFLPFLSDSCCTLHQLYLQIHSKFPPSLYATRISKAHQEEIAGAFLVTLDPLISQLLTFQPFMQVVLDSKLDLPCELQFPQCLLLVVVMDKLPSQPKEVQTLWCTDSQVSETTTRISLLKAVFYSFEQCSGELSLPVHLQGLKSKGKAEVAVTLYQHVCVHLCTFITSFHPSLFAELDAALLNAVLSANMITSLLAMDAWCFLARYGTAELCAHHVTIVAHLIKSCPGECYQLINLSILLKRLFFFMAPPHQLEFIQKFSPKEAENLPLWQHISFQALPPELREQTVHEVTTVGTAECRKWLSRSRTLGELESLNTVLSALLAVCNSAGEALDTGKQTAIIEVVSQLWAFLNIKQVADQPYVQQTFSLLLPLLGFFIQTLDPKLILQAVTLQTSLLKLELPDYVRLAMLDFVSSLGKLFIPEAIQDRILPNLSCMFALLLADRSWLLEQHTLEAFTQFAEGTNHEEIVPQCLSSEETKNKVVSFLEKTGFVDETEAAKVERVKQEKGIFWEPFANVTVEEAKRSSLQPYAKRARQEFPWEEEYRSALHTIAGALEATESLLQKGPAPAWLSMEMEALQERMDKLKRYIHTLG
UniProt Q0PNE2: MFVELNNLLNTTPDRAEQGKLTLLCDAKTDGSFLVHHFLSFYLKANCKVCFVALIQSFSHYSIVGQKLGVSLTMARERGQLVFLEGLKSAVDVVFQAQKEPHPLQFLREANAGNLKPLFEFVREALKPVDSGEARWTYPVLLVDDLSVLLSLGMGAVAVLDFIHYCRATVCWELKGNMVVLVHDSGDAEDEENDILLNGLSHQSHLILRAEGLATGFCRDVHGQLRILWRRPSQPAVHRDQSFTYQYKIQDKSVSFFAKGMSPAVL
UniProt P07384: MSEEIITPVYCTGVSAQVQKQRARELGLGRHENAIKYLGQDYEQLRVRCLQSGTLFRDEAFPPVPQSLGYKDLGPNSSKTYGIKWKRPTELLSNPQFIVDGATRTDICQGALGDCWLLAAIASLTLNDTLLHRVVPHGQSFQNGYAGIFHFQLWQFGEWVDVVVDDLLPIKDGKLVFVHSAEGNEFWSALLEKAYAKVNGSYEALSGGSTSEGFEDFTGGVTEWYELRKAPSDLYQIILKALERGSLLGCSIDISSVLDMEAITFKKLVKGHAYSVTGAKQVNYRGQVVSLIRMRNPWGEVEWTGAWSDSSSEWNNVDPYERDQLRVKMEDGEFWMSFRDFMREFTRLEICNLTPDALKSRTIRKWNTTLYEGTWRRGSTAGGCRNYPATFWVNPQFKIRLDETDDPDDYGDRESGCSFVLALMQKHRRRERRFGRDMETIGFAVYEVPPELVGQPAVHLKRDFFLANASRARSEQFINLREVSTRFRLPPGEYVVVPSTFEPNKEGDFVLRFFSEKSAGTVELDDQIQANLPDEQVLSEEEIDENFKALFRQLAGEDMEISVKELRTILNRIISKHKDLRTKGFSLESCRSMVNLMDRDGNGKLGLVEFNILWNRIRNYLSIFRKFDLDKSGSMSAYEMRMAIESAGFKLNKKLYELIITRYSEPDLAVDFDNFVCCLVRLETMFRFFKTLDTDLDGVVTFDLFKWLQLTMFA
UniProt Q8IVM0: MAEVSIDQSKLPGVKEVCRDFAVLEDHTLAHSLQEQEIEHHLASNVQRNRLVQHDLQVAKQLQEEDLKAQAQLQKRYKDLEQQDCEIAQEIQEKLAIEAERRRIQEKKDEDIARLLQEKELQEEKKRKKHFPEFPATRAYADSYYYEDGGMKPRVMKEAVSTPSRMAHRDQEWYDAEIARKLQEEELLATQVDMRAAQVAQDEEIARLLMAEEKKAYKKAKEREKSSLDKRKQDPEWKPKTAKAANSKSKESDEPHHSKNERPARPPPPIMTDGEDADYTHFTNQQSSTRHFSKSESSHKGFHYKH
UniProt Q96ES7: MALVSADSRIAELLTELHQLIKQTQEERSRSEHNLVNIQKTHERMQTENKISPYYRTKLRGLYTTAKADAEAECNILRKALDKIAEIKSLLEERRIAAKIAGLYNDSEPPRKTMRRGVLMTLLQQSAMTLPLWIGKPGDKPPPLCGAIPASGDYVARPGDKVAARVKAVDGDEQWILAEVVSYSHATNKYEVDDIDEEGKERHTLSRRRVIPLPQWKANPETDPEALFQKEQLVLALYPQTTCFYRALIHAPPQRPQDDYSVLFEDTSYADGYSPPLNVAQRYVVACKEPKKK
UniProt Q68CQ4: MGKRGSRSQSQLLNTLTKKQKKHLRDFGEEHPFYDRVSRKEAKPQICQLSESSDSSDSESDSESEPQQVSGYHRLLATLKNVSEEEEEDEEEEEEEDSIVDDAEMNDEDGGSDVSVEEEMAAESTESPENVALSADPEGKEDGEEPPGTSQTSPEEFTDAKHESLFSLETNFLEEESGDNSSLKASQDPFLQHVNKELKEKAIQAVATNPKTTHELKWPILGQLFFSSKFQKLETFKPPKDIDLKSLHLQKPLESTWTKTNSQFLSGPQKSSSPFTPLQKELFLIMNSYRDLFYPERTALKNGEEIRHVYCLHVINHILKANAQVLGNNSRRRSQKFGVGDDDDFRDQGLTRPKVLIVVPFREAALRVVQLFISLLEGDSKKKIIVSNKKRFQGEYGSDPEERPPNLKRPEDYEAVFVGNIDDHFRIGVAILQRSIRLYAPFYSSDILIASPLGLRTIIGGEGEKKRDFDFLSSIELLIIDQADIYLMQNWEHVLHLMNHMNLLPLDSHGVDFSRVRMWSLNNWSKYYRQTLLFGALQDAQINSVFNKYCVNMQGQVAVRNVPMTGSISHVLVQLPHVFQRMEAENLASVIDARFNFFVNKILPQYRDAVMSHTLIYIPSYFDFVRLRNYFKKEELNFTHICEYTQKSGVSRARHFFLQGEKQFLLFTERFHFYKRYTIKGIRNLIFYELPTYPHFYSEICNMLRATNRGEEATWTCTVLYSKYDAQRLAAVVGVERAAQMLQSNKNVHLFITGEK
UniProt Q9NYP9: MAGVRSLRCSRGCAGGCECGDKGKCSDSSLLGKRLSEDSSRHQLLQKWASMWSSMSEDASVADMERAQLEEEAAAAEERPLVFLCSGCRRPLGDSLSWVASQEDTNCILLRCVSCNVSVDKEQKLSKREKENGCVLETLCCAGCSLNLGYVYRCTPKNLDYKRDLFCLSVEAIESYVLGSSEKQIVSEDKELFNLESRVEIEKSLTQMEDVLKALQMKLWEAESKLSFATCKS
UniProt Q5SWX8: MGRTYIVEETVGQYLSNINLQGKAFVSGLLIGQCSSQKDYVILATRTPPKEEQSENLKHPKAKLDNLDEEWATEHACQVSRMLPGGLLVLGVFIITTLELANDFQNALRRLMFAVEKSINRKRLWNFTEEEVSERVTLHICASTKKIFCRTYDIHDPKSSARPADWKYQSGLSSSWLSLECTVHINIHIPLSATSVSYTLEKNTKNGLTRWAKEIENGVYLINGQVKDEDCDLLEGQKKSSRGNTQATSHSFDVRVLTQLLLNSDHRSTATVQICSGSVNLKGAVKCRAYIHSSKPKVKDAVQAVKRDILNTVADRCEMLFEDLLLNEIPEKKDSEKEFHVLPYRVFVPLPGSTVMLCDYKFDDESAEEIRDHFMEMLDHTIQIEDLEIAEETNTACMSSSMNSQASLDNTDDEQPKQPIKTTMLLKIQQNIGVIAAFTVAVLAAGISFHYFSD
UniProt Q9Y6J0: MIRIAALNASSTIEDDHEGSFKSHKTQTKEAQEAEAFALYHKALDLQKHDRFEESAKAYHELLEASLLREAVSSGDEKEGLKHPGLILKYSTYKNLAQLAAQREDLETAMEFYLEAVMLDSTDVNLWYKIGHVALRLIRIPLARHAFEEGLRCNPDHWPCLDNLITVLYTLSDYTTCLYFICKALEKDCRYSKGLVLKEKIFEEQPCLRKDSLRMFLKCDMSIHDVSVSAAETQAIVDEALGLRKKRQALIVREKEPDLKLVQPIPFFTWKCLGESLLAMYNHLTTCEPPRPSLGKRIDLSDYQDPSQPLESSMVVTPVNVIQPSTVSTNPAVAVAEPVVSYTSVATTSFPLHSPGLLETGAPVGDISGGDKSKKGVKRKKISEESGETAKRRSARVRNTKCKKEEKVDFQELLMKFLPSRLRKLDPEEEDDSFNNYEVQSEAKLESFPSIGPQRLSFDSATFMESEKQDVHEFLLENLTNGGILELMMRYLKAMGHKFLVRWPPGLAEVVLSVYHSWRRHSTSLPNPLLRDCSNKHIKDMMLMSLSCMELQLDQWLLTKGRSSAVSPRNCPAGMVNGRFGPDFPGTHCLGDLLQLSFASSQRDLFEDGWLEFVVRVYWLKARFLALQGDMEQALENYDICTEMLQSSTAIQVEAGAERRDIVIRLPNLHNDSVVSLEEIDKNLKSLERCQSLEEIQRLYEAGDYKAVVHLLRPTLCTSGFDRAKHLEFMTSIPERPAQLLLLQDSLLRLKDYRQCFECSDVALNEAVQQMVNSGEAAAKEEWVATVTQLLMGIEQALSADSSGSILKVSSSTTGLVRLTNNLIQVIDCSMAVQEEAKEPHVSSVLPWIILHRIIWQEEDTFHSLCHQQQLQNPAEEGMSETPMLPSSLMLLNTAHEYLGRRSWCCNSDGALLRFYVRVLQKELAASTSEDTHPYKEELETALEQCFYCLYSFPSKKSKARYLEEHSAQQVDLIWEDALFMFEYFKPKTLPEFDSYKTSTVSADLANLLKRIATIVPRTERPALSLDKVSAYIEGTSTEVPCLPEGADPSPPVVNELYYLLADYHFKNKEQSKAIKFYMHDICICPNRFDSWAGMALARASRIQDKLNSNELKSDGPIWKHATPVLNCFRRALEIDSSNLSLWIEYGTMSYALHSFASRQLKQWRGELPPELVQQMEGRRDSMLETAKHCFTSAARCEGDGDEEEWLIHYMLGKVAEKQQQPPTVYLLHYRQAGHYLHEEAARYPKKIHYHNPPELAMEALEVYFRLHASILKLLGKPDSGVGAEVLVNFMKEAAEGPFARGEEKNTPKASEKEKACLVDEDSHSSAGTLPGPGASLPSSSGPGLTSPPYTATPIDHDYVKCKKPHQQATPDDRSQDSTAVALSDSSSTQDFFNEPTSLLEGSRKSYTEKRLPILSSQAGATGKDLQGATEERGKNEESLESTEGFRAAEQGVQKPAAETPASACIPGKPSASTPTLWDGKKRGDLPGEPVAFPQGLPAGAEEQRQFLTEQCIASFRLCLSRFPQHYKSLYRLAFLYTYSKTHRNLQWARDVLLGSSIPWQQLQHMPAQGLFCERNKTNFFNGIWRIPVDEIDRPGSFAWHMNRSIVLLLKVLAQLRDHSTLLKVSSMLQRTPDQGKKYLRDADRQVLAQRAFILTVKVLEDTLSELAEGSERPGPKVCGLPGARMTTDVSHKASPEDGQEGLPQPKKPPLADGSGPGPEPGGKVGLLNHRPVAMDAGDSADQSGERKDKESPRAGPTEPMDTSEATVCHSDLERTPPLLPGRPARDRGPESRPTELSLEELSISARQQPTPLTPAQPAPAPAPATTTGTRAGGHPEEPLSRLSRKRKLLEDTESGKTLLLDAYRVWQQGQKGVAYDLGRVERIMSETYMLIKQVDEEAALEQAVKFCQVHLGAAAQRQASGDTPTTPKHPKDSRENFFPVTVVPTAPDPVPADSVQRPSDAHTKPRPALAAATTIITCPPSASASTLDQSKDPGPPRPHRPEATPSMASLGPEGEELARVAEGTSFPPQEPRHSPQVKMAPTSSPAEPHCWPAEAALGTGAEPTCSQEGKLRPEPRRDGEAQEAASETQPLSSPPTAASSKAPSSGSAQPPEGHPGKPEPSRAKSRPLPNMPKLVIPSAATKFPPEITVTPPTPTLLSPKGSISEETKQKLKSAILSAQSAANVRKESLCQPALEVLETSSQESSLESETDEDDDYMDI

Compound: COc1ccc(Cn2ccc3cc(C)c(C(=O)NO)cc32)cc1
Assay: dose-dependent thermal stabilisation call (2D-TPP, DLPTP, 10% FDR) (binary (1 = stabilised)); higher = stabilised by the compound
Conditions: system: HL-60 intact cells; concentration range 0.04-10 µM
Experimental: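 2D thermal proteome profiling in intact HL-60 cells treated with BRD-3811 (0, 0.04, 0.29, 2, 10 uM) for 90 min at 37 C, then heated 3 min at one of 12 temperatures (42-63.9 C). Soluble protein was quantified by TMT10 MS. The value is the DLPTP call of the paper: dose-dependent thermal stabilisation over all temperatures at 10% FDR (F-test of a dose-response against a flat model); one experiment, one call per tested protein.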

Target | dose-dependent thermal stabilisation call
CCDC86 (UniProt Q9H6F5) | inactive: 0
CARS (UniProt P49589) | inactive: 0
CD2BP2 (UniProt O95400) | inactive: 0
CAPZB (UniProt P47756) | inactive: 0
C1ORF31 (UniProt Q5JTJ3) | inactive: 0
CCDC6 (UniProt Q16204) | inactive: 0
C1ORF52 (UniProt Q8N6N3) | inactive: 0
C9ORF78 (UniProt Q9NZ63) | inactive: 0
C20ORF72 (UniProt Q9BQP7) | inactive: 0
C3ORF60 (UniProt Q9BU61) | inactive: 0
CAB39L (UniProt Q9H9S4) | inactive: 0
C4ORF15 (UniProt Q68CZ6) | inactive: 0
CAD (UniProt P27708) | inactive: 0
CAPZA1 (UniProt P52907) | inactive: 0
C1ORF38 (UniProt Q5TEJ8) | inactive: 0
C1ORF112 (UniProt Q9NSG2) | inactive: 0
C3ORF75 (UniProt Q0PNE2) | inactive: 0
CAPN1 (UniProt P07384) | inactive: 0
CALM1 (UniProt P0DP23) | inactive: 0
C5ORF44 (UniProt A5PLN9) | inactive: 0

Reprinted at random: 2 records from the list
Target | dose-dependent thermal stabilisation call
C4ORF15 (UniProt Q68CZ6) | inactive: 0
C9ORF78 (UniProt Q9NZ63) | inactive: 0

More entries.

Target | dose-dependent thermal stabilisation call
CBS (UniProt P35520) | inactive: 0
CCDC50 (UniProt Q8IVM0) | inactive: 0
C20ORF24 (UniProt Q9BUV8) | inactive: 0
CCDC101 (UniProt Q96ES7) | inactive: 0
CCT6A (UniProt P40227) | inactive: 0
C1ORF107 (UniProt Q68CQ4) | inactive: 0
CAPN7 (UniProt Q9Y6W3) | inactive: 0
C1ORF151 (UniProt Q5TGZ0) | inactive: 0
C5ORF24 (UniProt Q7Z6I8) | inactive: 0
CALCOCO2 (UniProt Q13137) | inactive: 0
C4B (UniProt P0C0L5) | inactive: 0
CAPZA2 (UniProt P47755) | inactive: 0
C21ORF45 (UniProt Q9NYP9) | inactive: 0
C3ORF17 (UniProt Q6NW34) | inactive: 0
C5ORF28 (UniProt Q0VDI3) | inactive: 0
C4ORF8 (UniProt P78312) | inactive: 0
CCT7 (UniProt Q99832) | inactive: 0
C1ORF27 (UniProt Q5SWX8) | inactive: 0
CABIN1 (UniProt Q9Y6J0) | inactive: 0
CCDC22 (UniProt O60826) | inactive: 0
